# Source: PubChem BioAssay AID186 (DTP/NCI, 2004)
# The mice bore no tumour; each value counts animals alive of those treated. Survivors were counted at the toxicity check, usually on the fifth day, unless a day is given; later deaths do not show. Schedule codes are those of the source, read here as Q, the interval in days (D) or hours (H), X, the number of doses. Some doses were run more than once; the values are given in rising order. Some schedule codes hold Z or #, which are not explained here.
# Test system: B6D2F1 mice, nontumored toxicity test, survival
# Test: NCI In Vivo Anticancer Drug Screen. Data for tumor model Nontumored Animals (Toxicity Test) in B6D2F1 (BDF1) mice
smiles,measurement,setting,value
CC[C@]1(O)C[C@H]2CN(CCc3c([nH]c4ccccc34)[C@@](C(=O)OC)(c3cc4c(cc3OC)N(C=O)[C@H]3[C@@](O)(C(=O)OC)[C@H](OC(C)=O)[C@]5(CC)C=CCN6CC[C@]43[C@@H]65)C2)C1,survivor count,"dose: 0.18 mg/kg/injection, schedule: Q01DX009 (ip), vehicle: saline",5 of 5
same,survivor count,"dose: 0.3 mg/kg/injection, schedule: Q01DX009 (ip), vehicle: saline",5 of 5
same,survivor count,"dose: 0.36 mg/kg/injection, schedule: Q04DX003 (ip), vehicle: saline",5 of 5
same,survivor count,"dose: 0.38 mg/kg/injection, schedule: Q04DX003 (ip), vehicle: saline",4 of 4
same,survivor count,"dose: 0.5 mg/kg/injection, schedule: Q01DX009 (ip), vehicle: saline",5 of 5
same,survivor count,"dose: 0.5 mg/kg/injection, schedule: Q04DX003 (ip), vehicle: water",4 of 4
same,survivor count,"dose: 0.54 mg/kg/injection, schedule: Q04DX003 (ip), vehicle: saline",5 of 5
same,survivor count,"dose: 0.6 mg/kg/injection, schedule: Q04DX003 (ip), vehicle: saline",5 of 5
same,survivor count,"dose: 0.67 mg/kg/injection, schedule: Q04DX003 (ip), vehicle: saline",10 of 10
same,survivor count,"dose: 0.75 mg/kg/injection, schedule: Q04DX003 (ip), vehicle: saline",4 of 4
same,survivor count,"dose: 0.83 mg/kg/injection, schedule: Q01DX009 (ip), vehicle: saline",5 of 5
same,survivor count,"dose: 0.9 mg/kg/injection, schedule: Q04DX003 (ip), vehicle: saline",5 of 5
same,survivor count,"dose: 1.0 mg/kg/injection, schedule: Q04DX003 (ip), vehicle: saline",10 of 10 and 5 of 5
same,survivor count,"dose: 1.0 mg/kg/injection, schedule: Q04DX003 (ip), vehicle: water",4 of 4
same,survivor count,"dose: 1.0 mg/kg/injection, schedule: Q08DX002 (ip), vehicle: water",6 of 6
same,survivor count,"dose: 1.0 mg/kg/injection, schedule: Q08DX003 (ip), vehicle: water",6 of 6
same,survivor count,"dose: 1.5 mg/kg/injection, schedule: Q04DX003 (ip), vehicle: saline","10 of 10, 4 of 4, 5 of 5"
same,survivor count,"dose: 1.67 mg/kg/injection, schedule: Q04DX003 (ip), vehicle: saline",5 of 5
same,survivor count,"dose: 2.0 mg/kg/injection, schedule: Q04DX003 (ip), vehicle: water",4 of 4
same,survivor count,"dose: 2.0 mg/kg/injection, schedule: Q08DX002 (ip), vehicle: water",6 of 6
same,survivor count,"dose: 2.0 mg/kg/injection, schedule: Q08DX003 (ip), vehicle: water",6 of 6
same,survivor count,"dose: 2.5 mg/kg/injection, schedule: Q04DX003 (ip), vehicle: saline",1 of 2
same,survivor count,"dose: 3.0 mg/kg/injection, schedule: Q04DX003 (ip), vehicle: saline",4 of 4
same,survivor count,"dose: 4.0 mg/kg/injection, schedule: Q04DX003 (ip), vehicle: water",4 of 4
same,survivor count,"dose: 4.0 mg/kg/injection, schedule: Q08DX002 (ip), vehicle: water",6 of 6
same,survivor count,"dose: 4.0 mg/kg/injection, schedule: Q08DX003 (ip), vehicle: water",6 of 6
same,survivor count,"dose: 8.0 mg/kg/injection, schedule: Q08DX002 (ip), vehicle: water",2 of 6
same,survivor count,"dose: 8.0 mg/kg/injection, schedule: Q08DX003 (ip), vehicle: water",5 of 6
CSCCCNC(=O)c1csc(-c2csc(CCNC(=O)c3ccccc3)n2)n1,survivor count,"dose: 6.25 mg/kg/injection, schedule: Q01DX011 (ip), vehicle: saline",6 of 6
same,survivor count,"dose: 12.5 mg/kg/injection, schedule: Q01DX011 (ip), vehicle: saline",6 of 6
same,survivor count,"dose: 25.0 mg/kg/injection, schedule: Q01DX011 (ip), vehicle: saline",6 of 6
same,survivor count,"dose: 50.0 mg/kg/injection, schedule: Q01DX011 (ip), vehicle: saline",6 of 6
same,survivor count,"dose: 100.0 mg/kg/injection, schedule: Q01DX011 (ip), vehicle: saline",6 of 6
same,survivor count,"dose: 200.0 mg/kg/injection, schedule: Q01DX011 (ip), vehicle: saline",6 of 6
same,survivor count,"dose: 400.0 mg/kg/injection, schedule: Q01DX011 (ip), vehicle: saline",6 of 6
CN(C)CCN(Cc1ccccc1)c1ccccn1,survivor count,"dose: 16.0 mg/kg/injection, schedule: Q01DX001 (sc), vehicle: saline",6 of 6
same,survivor count,"dose: 20.0 mg/kg/injection, schedule: Q01DX001 (sc), vehicle: saline",6 of 6
same,survivor count,"dose: 24.0 mg/kg/injection, schedule: Q01DX001 (sc), vehicle: saline",6 of 6
same,survivor count,"dose: 25.0 mg/kg/injection, schedule: Q01DX001 (ip), vehicle: saline",8 of 8
same,survivor count,"dose: 30.0 mg/kg/injection, schedule: Q01DX001 (sc), vehicle: saline",6 of 6
same,survivor count,"dose: 36.0 mg/kg/injection, schedule: Q01DX001 (ip), vehicle: saline",8 of 8
O=C[C@@H](CO)O[C@H](C=O)c1c[nH]c(=O)[nH]c1=O,survivor count,"dose: 20.0 mg/kg/injection, schedule: Q01DX009 (ip), vehicle: saline",10 of 10
same,survivor count,"dose: 25.0 mg/kg/injection, schedule: Q01DX009 (ip), vehicle: saline",10 of 10
same,survivor count,"dose: 30.0 mg/kg/injection, schedule: Q01DX009 (ip), vehicle: saline",10 of 10
same,survivor count,"dose: 35.0 mg/kg/injection, schedule: Q01DX009 (ip), vehicle: saline",10 of 10
same,survivor count,"dose: 40.0 mg/kg/injection, schedule: Q01DX009 (ip), vehicle: saline",10 of 10
same,survivor count,"dose: 80.0 mg/kg/injection, schedule: Q04DX003 (ip), vehicle: saline",10 of 10
same,survivor count,"dose: 100.0 mg/kg/injection, schedule: Q04DX003 (ip), vehicle: saline",10 of 10
same,survivor count,"dose: 120.0 mg/kg/injection, schedule: Q04DX003 (ip), vehicle: saline",9 of 9
same,survivor count,"dose: 140.0 mg/kg/injection, schedule: Q04DX003 (ip), vehicle: saline",10 of 10
C[C@]12C=CC(=O)C=C1CC[C@@H]1[C@@H]2C(=O)C[C@@]2(C)[C@H]1CC[C@]2(O)C(=O)CO,survivor count,"dose: 25.0 mg/kg/injection, schedule: Q01DX005 (ip), vehicle: water",8 of 8
same,survivor count,"dose: 25.0 mg/kg/injection, schedule: Q01DX009 (ip), vehicle: water",6 of 6
same,survivor count,"dose: 25.0 mg/kg/injection, schedule: Q## X014 (ip), vehicle: water",6 of 6
same,survivor count,"dose: 50.0 mg/kg/injection, schedule: Q01DX005 (ip), vehicle: water",8 of 8
same,survivor count,"dose: 50.0 mg/kg/injection, schedule: Q01DX009 (ip), vehicle: water",6 of 6
same,survivor count,"dose: 50.0 mg/kg/injection, schedule: Q## X014 (ip), vehicle: water",6 of 6
same,survivor count,"dose: 100.0 mg/kg/injection, schedule: Q01DX005 (ip), vehicle: water",8 of 8
same,survivor count,"dose: 100.0 mg/kg/injection, schedule: Q01DX009 (ip), vehicle: water",6 of 6
same,survivor count,"dose: 100.0 mg/kg/injection, schedule: Q## X014 (ip), vehicle: water",5 of 6
same,survivor count,"dose: 200.0 mg/kg/injection, schedule: Q01DX001 (ip), vehicle: water",8 of 8
same,survivor count,"dose: 200.0 mg/kg/injection, schedule: Q01DX005 (ip), vehicle: water",8 of 8
same,survivor count,"dose: 200.0 mg/kg/injection, schedule: Q01DX009 (ip), vehicle: water",5 of 6
same,survivor count,"dose: 200.0 mg/kg/injection, schedule: Q## X014 (ip), vehicle: water",6 of 6
same,survivor count,"dose: 400.0 mg/kg/injection, schedule: Q01DX001 (ip), vehicle: water",8 of 8
same,survivor count,"dose: 400.0 mg/kg/injection, schedule: Q01DX005 (ip), vehicle: water",8 of 8
same,survivor count,"dose: 800.0 mg/kg/injection, schedule: Q01DX001 (ip), vehicle: water",8 of 8
same,survivor count,"dose: 1600.0 mg/kg/injection, schedule: Q01DX001 (ip), vehicle: water",8 of 8
same,survivor count,"dose: 3200.0 mg/kg/injection, schedule: Q01DX001 (ip), vehicle: water",8 of 8
